Values from PubChem BioAssay AID686937 (Drosophila RNAi Screening Center, 2013).
The screen tested about 23,000 reagents; this is a random part of those that have a named target and a result. 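Reduced-secretion tags in replicate 1 do not always agree with the z-scores; no criterion for assigning the tags was given.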 The numbers tell different reagents against one gene apart. Not all columns of the deposit are shown. The record does not give: the amount of reagent.

Test: 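Knock-downs that reduce output of a secreted reporter enzyme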 (primary screen)
Cell system: Drosophila S2 cells expressing secreted horseradish peroxidase
Reagent: long dsRNA against Drosophila genes
Time to read-out: about 5.5 days (5 days dsRNA, then 12 h reporter induction)
Conditions: reporter expression induced after 5 days of dsRNA, read 12 h later; inducer not stated
Measured: 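Chemiluminescent measurement of peroxidase in the medium 12 h after reporter induction, following 5 days of dsRNA, given as a z-score per plate; higher means more secretion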
Reading the numbers: z-score: higher = more reporter secreted into medium

gene knocked down,reagent,"z-score, replicate 1","z-score, replicate 2","z-score, replicate 3","z-score, replicate 4"
CG8298,1,0.38,0.54,,
betaTry,1,0.42,0.35,0.39,-0.13
betaTry,2,0.15,0.51,,
DCTN6-p27,1,0.08,0.21,0.41,0.14
DCTN6-p27,2,-0.08,-0.71,,
Cpr76Bd,1,0.52,0.23,,
CG17163,1,0.42,0.14,,
CG16713,1,-0.04,0.37,,
Graf,1,0.25,0.12,,
CG14302,1,0.42,0.46,,
CG5214,1,0.62,0.37,0.52,0.45
CG5214,2,0.35,0.14,,
Pbp45,1,0.61,0.74,,
CG5968,1,0.41,0.3,,
mRNA-cap,1,-2.56,-5.26,,
Gdap1,1,0.19,0.37,,
CG11906,1,0.49,0.26,,
Nelf-A,1,0.64,0.54,,
CG13585,1,0.5,0.36,,
Baldspot,1,0.29,0.24,,
gskt,1,0.67,0.79,,
Klp59C,1,0.14,0.27,,
CG15760,1,-0.06,-0.02,,
CR9337,1,0.35,0.11,,
CG17380,1,0.29,0.41,,
Cks85A,1,-0.01,0.3,,
Taz,1,-0.29,0.61,0.32,0.1
Taz,2,-2.4,-1.03,,
CG15306,1,0.45,0.28,,
CG15306,2,0.32,0.47,0.46,0.22
Syn2,1,0.31,0.26,,
CG6106,1,0.27,0.54,,
Mos,1,0.35,0.37,,
CG12003,1,0.72,0.47,,
BuGZ,1,0.2,-0.08,,
BuGZ,2,0.29,0.23,,
ase,1,0.35,0.35,,
sens-2,1,0.23,0.21,,
sens-2,2,0.1,0.26,,
sens-2,3,-0.8,-0.45,,
CG13005,1,0.17,0.32,,
CG11076,1,0.21,0.35,,
Stip1,1,0.92,0.74,,
Nemp,1,0.34,0.05,,
Loxl2,1,0.34,0.3,,
CG10467,1,0.16,0.24,,
CG14968,1,0.79,0.53,,
Dnai2,1,-0.22,-0.22,,
CG1394,1,-0.02,-0.76,,
Keap1,1,0.12,0.14,,
CG5377,1,-1.13,-0.03,,
CG13557,1,-0.01,0.33,,
RpL34a,1,0.28,0.35,,
Lk6,1,-0.12,0.22,,
Lk6,2,-0.09,0.05,,
Cyt-b5-r,1,0.76,0.64,,
RluA-2,1,0.43,0.22,,
CG14564,1,0.4,0.32,,
CG14564,2,1.14,1.16,,
Charon,1,0.26,0.21,,
ppk,1,-0.21,0.41,,
TkR99D,1,-0.03,-0.31,,
TwdlR,1,0.52,0.38,,
APC7,1,0.44,0.49,,
CG8642,1,0.37,0.29,,
CG16710,1,0.54,0.59,,
CG32719,1,-0.35,0.07,,
ASPP,1,-2.1,-0.75,,
aay,1,-0.16,0.11,,
Paip2,1,0.41,0.29,,
CG8768,1,0.41,0.38,,
Jhbp6,1,0.45,0.54,,
sle,1,0.28,0.45,,
Cubn2,1,0.08,0.42,,
Cubn2,2,0.33,0.37,,
CG5569,1,0.22,-0.1,,
CG34338,1,0.17,0.37,,
CG18870,1,-0.22,0.18,,
Octbeta1R,1,0.03,0.1,,
Zwilch,1,0.31,0.32,,
Wdfy2,1,0.24,0.25,,
eIF3i,1,-2.55,-3,,
CG5071,1,0.26,0.3,,
CG5071,2,0.3,-7.19,,
CG5346,1,0.14,-0.18,,
CG12420,1,0.53,0.36,0.43,0.24
futsch,1,0.55,0.04,,
futsch,2,0.28,0.29,0.41,0.18
futsch,3,0.38,0.19,,
futsch,4,0.4,0.45,,
CCT1,1,-0.54,-1.24,,
CG42853,1,0.4,-0.03,,
RpL8,1,-3.41,-4.01,,
RpL8,2,-5.05,-3.31,,
Poc1,1,0.16,0.21,,
CG16926,1,0.19,0.28,,
S1P,1,-0.15,0.17,,
Elba1,1,-0.26,-0.41,,
CG1416,1,0.05,0.31,,
danr,1,0.27,0.44,,
CG11560,1,0.57,0.3,,
CG9297,1,0.23,0.29,,
CG13461,1,-0.27,-0.08,,
CG10300,1,0.08,0.22,,
